{"source": "patent US9975901B2", "key": {"[1]": {"test": "not given", "remark": "listed apart in the source"}, "[2]": {"test": "not given", "remark": "listed apart in the source"}}, "note": "Like-named read-outs stand apart in the source and are kept apart here."}
{"smiles": "CCNC(=O)C[C@@H]1N=C(c2ccc(Cl)cc2)c2cc(OC)ccc2-n2c(C)nnc21", "values": [{"measurement": "disproportionation in tablet dosage form", "setting": "formulated with certain commonly used excipients (e.g. disintegrant croscarmellose sodium)", "value": "disproportionation may occur"}, {"measurement": "decomposition in standard stability studies", "setting": "salt alone", "value": "did not decompose"}, {"measurement": "chemical and physical stability after storage", "setting": "[1]; 3 months at 50° C./AmbH, desiccated and non-desiccated", "value": "both chemical and physical stability"}, {"measurement": "chemical and physical stability after storage", "setting": "[1]; 6 months at 40° C./75% RH, desiccated and non-desiccated", "value": "both chemical and physical stability"}, {"measurement": "chemical and physical stability after storage", "setting": "[1]; 12 months at 25° C./60% RH, non-desiccated", "value": "both chemical and physical stability"}, {"measurement": "chemical and physical stability after storage", "setting": "[1]; 12 months at 30° C./65% RH, desiccated and non-desiccated", "value": "both chemical and physical stability"}, {"measurement": "Water content increase", "setting": "[1]; 25° C./60% RH after 12 months without desiccant", "value": 0.12, "unit": "%"}, {"measurement": "Water content increase", "setting": "[1]; 30° C./65% RH after 12 month with and without desiccant", "value": 0.10, "unit": "%"}, {"measurement": "Water content increase", "setting": "[1]; 50° C./AmbH without desiccant", "value": 0.15, "unit": "%"}, {"measurement": "change in solid state form (XRPD)", "setting": "[1]; all storage conditions", "value": "no change"}, {"measurement": "changes in description, content, drug-related impurities content and chiral purity", "setting": "[1]; all storage conditions", "value": "No significant changes"}, {"measurement": "description (colour) after light stressing", "setting": "[2]; exposed photostability sample, initial \"white to almost white solid\"", "value": "white and slightly yellow solid"}, {"measurement": "total impurity profile", "setting": "[2]; photostability exposed sample", "value": 0.44, "unit": "%"}]}
